Source: PubChem BioAssay AID1053208 (Peter MacCallum Cancer Centre, 2014)

Screen: 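Synthetic lethal interactions between gene loss and doxorubicin in osteosarcoma cells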 (primary screen)
System: mouse osteosarcoma cells, early-passage culture from an engineered mouse model of fibroblastic bone tumour
Reagents: siRNA pool against mouse genes, 40 nM
Time to read-out: about 120 h (48 h before drug, then 72 h with drug)
Treatment: doxorubicin 100 nM for 72 h, roughly 30-40% inhibitory dose
Read-out: 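Luminescent ATP signal taken as viability with or without 100 nM doxorubicin for 72 h; mean of two wells set against non-targeting siRNA and turned into robust z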
Scale: viability z-score with doxorubicin and doxorubicin viability vs non-targeting: higher = more viable cells under doxorubicin; viability z-score without drug: higher = more viable cells with knock-down alone; z-score of drug to no-drug ratio: higher = less drug sensitisation by knock-down
Call rule: 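a pool counts as active when its viability z-score with doxorubicin is -2 or below and its z-score without drug lies between -2 and 2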
The whole screen tested about 17,000 reagents; shown is a part drawn at random. Of all reagents, 788 (4.7%) got an active call. 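Calls rest on z-score classes alone; an extra cut-off of viability at most 70% of control was not applied to them.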

gene | combined z-score class | viability z-score with doxorubicin | viability z-score without drug | z-score of drug to no-drug ratio | doxorubicin viability vs non-targeting | Call
Crip2 | no change with or without drug | 0.45 | 0.84 | 0 | 0.98 | inactive
TRDN | no change with or without drug | 1.46 | 0.84 | 1.01 | 1.07 | inactive
Utp4 | low cell count without drug only | -1.69 | -2.53 | 0.11 | 0.79 | inactive
Vmn1r44 | no change with or without drug | 1.46 | 1.52 | 0.56 | 1.07 | inactive
Clip2 | no change with or without drug | 0.56 | 0.51 | 0.34 | 0.99 | inactive
Acox1 | no change with or without drug | -0.79 | -0.51 | -0.34 | 0.87 | inactive
Chmp2b | no change with or without drug | 0.22 | -0.51 | 0.67 | 0.96 | inactive
Nkx6-1 | no change with or without drug | 1.8 | -0.51 | 2.47 | 1.1 | inactive
Kcna2 | no change with or without drug | -0.67 | 0.34 | -0.79 | 0.88 | inactive
Mb21d2 | no change with or without drug | 0.22 | -0.17 | 0.45 | 0.96 | inactive
2900052N01Rik | no change with or without drug | 0.45 | 0.84 | 0 | 0.98 | inactive
Kat8 | no change with or without drug | 0.67 | -0.17 | 0.9 | 1 | inactive
Marcks | no change with or without drug | 1.69 | -0.84 | 2.59 | 1.09 | inactive
Cd22 | no change with or without drug | 1.12 | 0.84 | 0.67 | 1.04 | inactive
Ptbp2 | high cell count without drug only | 0.22 | 3.37 | -1.69 | 0.96 | inactive
Mc2r | no change with or without drug | 0.56 | 1.35 | -0.22 | 0.99 | inactive
Il18rap | no change with or without drug | -0.22 | -1.69 | 1.12 | 0.92 | inactive
Zfp446 | no change with or without drug | -0.45 | 0.17 | -0.45 | 0.9 | inactive
Caap1 | no change with or without drug | 0.67 | 0.67 | 0.34 | 1 | inactive
Papolg | no change with or without drug | -0.45 | 0 | -0.34 | 0.9 | inactive
Gtf3a | no change with or without drug | 0.67 | 1.52 | -0.22 | 1 | inactive
Atm | no change with or without drug | 1.01 | -1.35 | 2.25 | 1.03 | inactive
Kdm4a | low cell count with doxorubicin only | -2.36 | -0.17 | -2.25 | 0.73 | active
E230015B07Rik | no change with or without drug | 1.01 | 1.18 | 0.34 | 1.03 | inactive
Ing4 | no change with or without drug | -0.34 | -0.17 | -0.11 | 0.91 | inactive
Trim25 | high cell count without drug only | 0.79 | 2.19 | -0.45 | 1.01 | inactive
Slc35g1 | high cell count without drug only | 1.12 | 2.19 | -0.22 | 1.04 | inactive
Tspan15 | no change with or without drug | -0.22 | -0.84 | 0.45 | 0.92 | inactive
Ubtd2 | no change with or without drug | -0.22 | -0.17 | 0 | 0.92 | inactive
Eif2b2 | no change with or without drug | -1.12 | 0.84 | -1.57 | 0.84 | inactive
Pgm5 | low cell count with doxorubicin only | -2.14 | -0.51 | -1.8 | 0.75 | active
Cfi | no change with or without drug | 0.56 | -0.51 | 1.12 | 0.99 | inactive
A430057M04Rik | no change with or without drug | 0 | -0.34 | 0.34 | 0.94 | inactive
Sars1 | low cell count with doxorubicin only | -3.15 | -0.17 | -3.15 | 0.66 | active
Gm11545 | no change with or without drug | 0.9 | -0.17 | 1.24 | 1.02 | inactive
Erp44 | no change with or without drug | -1.8 | -0.34 | -1.57 | 0.78 | inactive
Spout1 | no change with or without drug | -0.9 | 0.17 | -0.9 | 0.86 | inactive
Or4d6 | no change with or without drug | -1.12 | -0.84 | -0.56 | 0.84 | inactive
Zdhhc9 | no change with or without drug | 0 | -0.84 | 0.67 | 0.94 | inactive
Fbxo46 | no change with or without drug | -0.56 | 1.01 | -1.12 | 0.89 | inactive
Smug1 | no change with or without drug | 0.22 | -0.17 | 0.45 | 0.96 | inactive
Supt5 | low cell count with doxorubicin only | -2.47 | -0.84 | -2.02 | 0.72 | active
Or2f1b | no change with or without drug | 1.01 | 0.84 | 0.56 | 1.03 | inactive
Cmbl | high cell count with and without drug | 2.02 | 3.2 | 0 | 1.12 | inactive
Mgat4e | high cell count with and without drug | 2.02 | 2.19 | 0.67 | 1.12 | inactive
Kcnk13 | no change with or without drug | 0.11 | 0.17 | 0.11 | 0.95 | inactive
Mrpl58 | no change with or without drug | -0.45 | -0.84 | 0.22 | 0.9 | inactive
Trim17 | high cell count without drug only | 0.9 | 2.19 | -0.45 | 1.02 | inactive
Zfp958 | no change with or without drug | 1.69 | 1.18 | 1.01 | 1.09 | inactive
Ppp1r3b | no change with or without drug | 0.9 | 0.51 | 0.67 | 1.02 | inactive
Tmc8 | no change with or without drug | 1.46 | 0.84 | 1.01 | 1.07 | inactive
Ppp3ca | no change with or without drug | 1.01 | -0.51 | 1.57 | 1.03 | inactive
Slc15a1 | no change with or without drug | -0.22 | -1.18 | 0.79 | 0.92 | inactive
Pdzd11 | no change with or without drug | 0.45 | 0.51 | 0.22 | 0.98 | inactive
Fastk | no change with or without drug | -1.01 | -0.84 | -0.45 | 0.85 | inactive
Wscd1 | no change with or without drug | 0.79 | 0.51 | 0.56 | 1.01 | inactive
Atf1 | no change with or without drug | -1.12 | -0.67 | -0.67 | 0.84 | inactive
Gja10 | no change with or without drug | 0.56 | 0.84 | 0.11 | 0.99 | inactive
Lrrc28 | no change with or without drug | -0.9 | 0.84 | -1.35 | 0.86 | inactive
Or11g25 | no change with or without drug | 0.67 | 1.69 | -0.34 | 1 | inactive
Per3 | low cell count with doxorubicin only | -2.47 | -1.18 | -1.8 | 0.72 | active
Ralgapa1 | no change with or without drug | -1.35 | -0.67 | -0.9 | 0.82 | inactive
Xkrx | no change with or without drug | 0.34 | -0.84 | 1.12 | 0.97 | inactive

9 entries from above, sorted by “doxorubicin viability vs non-targeting”, descending.
gene | combined z-score class | viability z-score with doxorubicin | viability z-score without drug | z-score of drug to no-drug ratio | doxorubicin viability vs non-targeting | Call
Nkx6-1 | no change with or without drug | 1.8 | -0.51 | 2.47 | 1.1 | inactive
Marcks | no change with or without drug | 1.69 | -0.84 | 2.59 | 1.09 | inactive
Cd22 | no change with or without drug | 1.12 | 0.84 | 0.67 | 1.04 | inactive
Kat8 | no change with or without drug | 0.67 | -0.17 | 0.9 | 1 | inactive
2900052N01Rik | no change with or without drug | 0.45 | 0.84 | 0 | 0.98 | inactive
Chmp2b | no change with or without drug | 0.22 | -0.51 | 0.67 | 0.96 | inactive
Mb21d2 | no change with or without drug | 0.22 | -0.17 | 0.45 | 0.96 | inactive
Ptbp2 | high cell count without drug only | 0.22 | 3.37 | -1.69 | 0.96 | inactive
Kcna2 | no change with or without drug | -0.67 | 0.34 | -0.79 | 0.88 | inactive
